Experimental data taken from publication PMC9698582.
Results are given in words; binding and its absence hold for the method and conditions named. In cells and extracts the contact can be indirect. A yes stands for co-enrichment or nearness to the bait. Other partners may have been found. Tags and fused reporters may be left off the sequences shown.

The chains behind the UniProt entries cited, without tags or fusion partners.
UniProt Q14974: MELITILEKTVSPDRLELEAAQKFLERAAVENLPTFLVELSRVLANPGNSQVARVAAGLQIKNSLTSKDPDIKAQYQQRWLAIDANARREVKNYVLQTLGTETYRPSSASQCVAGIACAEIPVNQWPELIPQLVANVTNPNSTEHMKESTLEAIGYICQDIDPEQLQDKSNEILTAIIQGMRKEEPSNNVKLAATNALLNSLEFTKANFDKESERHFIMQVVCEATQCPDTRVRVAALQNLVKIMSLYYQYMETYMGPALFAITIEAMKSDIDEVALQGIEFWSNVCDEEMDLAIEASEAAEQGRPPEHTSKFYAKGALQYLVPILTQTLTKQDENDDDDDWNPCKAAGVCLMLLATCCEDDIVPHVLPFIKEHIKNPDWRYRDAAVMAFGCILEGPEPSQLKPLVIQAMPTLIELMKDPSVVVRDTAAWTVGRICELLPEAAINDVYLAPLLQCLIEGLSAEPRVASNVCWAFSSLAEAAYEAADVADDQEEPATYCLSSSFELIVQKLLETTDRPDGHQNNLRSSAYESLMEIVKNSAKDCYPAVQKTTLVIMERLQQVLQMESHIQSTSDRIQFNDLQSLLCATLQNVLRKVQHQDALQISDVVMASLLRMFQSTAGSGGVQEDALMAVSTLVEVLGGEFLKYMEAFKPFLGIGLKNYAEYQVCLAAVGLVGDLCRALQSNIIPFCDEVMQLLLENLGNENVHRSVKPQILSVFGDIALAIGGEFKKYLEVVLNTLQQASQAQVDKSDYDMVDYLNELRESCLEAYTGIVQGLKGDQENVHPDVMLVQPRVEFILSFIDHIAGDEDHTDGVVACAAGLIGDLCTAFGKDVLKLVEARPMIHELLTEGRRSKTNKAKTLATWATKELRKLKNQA
UniProt Q9HAV4: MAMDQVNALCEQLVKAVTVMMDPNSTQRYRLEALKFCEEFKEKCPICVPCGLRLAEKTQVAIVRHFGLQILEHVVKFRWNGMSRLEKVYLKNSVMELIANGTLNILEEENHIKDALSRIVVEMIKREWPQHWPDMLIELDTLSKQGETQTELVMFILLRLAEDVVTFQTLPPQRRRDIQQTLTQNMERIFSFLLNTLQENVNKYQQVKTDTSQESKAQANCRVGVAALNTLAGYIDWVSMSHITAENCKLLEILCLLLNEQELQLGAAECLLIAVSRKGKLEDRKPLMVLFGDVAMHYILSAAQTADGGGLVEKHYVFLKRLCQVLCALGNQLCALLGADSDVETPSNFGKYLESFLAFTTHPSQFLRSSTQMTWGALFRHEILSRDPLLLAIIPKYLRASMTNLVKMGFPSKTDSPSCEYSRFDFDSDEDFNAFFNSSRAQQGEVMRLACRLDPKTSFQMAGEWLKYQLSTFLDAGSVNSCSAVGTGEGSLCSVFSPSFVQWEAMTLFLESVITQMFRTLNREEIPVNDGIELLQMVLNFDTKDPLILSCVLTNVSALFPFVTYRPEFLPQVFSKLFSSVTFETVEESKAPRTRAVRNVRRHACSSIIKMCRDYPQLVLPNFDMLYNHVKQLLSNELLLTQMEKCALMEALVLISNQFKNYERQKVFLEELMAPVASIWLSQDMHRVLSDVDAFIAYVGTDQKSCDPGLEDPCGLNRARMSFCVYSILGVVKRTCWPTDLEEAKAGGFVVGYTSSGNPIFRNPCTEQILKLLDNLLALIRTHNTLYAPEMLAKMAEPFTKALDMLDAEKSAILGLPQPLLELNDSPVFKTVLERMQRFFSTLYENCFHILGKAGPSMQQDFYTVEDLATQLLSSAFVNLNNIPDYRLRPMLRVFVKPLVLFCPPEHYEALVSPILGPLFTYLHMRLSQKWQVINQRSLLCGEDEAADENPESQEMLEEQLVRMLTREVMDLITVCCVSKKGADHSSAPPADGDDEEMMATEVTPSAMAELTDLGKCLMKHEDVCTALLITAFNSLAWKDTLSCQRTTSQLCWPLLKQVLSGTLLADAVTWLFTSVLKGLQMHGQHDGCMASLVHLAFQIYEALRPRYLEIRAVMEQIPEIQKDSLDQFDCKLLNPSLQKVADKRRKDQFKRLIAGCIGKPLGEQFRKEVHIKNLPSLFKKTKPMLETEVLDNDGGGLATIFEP
UniProt P78527: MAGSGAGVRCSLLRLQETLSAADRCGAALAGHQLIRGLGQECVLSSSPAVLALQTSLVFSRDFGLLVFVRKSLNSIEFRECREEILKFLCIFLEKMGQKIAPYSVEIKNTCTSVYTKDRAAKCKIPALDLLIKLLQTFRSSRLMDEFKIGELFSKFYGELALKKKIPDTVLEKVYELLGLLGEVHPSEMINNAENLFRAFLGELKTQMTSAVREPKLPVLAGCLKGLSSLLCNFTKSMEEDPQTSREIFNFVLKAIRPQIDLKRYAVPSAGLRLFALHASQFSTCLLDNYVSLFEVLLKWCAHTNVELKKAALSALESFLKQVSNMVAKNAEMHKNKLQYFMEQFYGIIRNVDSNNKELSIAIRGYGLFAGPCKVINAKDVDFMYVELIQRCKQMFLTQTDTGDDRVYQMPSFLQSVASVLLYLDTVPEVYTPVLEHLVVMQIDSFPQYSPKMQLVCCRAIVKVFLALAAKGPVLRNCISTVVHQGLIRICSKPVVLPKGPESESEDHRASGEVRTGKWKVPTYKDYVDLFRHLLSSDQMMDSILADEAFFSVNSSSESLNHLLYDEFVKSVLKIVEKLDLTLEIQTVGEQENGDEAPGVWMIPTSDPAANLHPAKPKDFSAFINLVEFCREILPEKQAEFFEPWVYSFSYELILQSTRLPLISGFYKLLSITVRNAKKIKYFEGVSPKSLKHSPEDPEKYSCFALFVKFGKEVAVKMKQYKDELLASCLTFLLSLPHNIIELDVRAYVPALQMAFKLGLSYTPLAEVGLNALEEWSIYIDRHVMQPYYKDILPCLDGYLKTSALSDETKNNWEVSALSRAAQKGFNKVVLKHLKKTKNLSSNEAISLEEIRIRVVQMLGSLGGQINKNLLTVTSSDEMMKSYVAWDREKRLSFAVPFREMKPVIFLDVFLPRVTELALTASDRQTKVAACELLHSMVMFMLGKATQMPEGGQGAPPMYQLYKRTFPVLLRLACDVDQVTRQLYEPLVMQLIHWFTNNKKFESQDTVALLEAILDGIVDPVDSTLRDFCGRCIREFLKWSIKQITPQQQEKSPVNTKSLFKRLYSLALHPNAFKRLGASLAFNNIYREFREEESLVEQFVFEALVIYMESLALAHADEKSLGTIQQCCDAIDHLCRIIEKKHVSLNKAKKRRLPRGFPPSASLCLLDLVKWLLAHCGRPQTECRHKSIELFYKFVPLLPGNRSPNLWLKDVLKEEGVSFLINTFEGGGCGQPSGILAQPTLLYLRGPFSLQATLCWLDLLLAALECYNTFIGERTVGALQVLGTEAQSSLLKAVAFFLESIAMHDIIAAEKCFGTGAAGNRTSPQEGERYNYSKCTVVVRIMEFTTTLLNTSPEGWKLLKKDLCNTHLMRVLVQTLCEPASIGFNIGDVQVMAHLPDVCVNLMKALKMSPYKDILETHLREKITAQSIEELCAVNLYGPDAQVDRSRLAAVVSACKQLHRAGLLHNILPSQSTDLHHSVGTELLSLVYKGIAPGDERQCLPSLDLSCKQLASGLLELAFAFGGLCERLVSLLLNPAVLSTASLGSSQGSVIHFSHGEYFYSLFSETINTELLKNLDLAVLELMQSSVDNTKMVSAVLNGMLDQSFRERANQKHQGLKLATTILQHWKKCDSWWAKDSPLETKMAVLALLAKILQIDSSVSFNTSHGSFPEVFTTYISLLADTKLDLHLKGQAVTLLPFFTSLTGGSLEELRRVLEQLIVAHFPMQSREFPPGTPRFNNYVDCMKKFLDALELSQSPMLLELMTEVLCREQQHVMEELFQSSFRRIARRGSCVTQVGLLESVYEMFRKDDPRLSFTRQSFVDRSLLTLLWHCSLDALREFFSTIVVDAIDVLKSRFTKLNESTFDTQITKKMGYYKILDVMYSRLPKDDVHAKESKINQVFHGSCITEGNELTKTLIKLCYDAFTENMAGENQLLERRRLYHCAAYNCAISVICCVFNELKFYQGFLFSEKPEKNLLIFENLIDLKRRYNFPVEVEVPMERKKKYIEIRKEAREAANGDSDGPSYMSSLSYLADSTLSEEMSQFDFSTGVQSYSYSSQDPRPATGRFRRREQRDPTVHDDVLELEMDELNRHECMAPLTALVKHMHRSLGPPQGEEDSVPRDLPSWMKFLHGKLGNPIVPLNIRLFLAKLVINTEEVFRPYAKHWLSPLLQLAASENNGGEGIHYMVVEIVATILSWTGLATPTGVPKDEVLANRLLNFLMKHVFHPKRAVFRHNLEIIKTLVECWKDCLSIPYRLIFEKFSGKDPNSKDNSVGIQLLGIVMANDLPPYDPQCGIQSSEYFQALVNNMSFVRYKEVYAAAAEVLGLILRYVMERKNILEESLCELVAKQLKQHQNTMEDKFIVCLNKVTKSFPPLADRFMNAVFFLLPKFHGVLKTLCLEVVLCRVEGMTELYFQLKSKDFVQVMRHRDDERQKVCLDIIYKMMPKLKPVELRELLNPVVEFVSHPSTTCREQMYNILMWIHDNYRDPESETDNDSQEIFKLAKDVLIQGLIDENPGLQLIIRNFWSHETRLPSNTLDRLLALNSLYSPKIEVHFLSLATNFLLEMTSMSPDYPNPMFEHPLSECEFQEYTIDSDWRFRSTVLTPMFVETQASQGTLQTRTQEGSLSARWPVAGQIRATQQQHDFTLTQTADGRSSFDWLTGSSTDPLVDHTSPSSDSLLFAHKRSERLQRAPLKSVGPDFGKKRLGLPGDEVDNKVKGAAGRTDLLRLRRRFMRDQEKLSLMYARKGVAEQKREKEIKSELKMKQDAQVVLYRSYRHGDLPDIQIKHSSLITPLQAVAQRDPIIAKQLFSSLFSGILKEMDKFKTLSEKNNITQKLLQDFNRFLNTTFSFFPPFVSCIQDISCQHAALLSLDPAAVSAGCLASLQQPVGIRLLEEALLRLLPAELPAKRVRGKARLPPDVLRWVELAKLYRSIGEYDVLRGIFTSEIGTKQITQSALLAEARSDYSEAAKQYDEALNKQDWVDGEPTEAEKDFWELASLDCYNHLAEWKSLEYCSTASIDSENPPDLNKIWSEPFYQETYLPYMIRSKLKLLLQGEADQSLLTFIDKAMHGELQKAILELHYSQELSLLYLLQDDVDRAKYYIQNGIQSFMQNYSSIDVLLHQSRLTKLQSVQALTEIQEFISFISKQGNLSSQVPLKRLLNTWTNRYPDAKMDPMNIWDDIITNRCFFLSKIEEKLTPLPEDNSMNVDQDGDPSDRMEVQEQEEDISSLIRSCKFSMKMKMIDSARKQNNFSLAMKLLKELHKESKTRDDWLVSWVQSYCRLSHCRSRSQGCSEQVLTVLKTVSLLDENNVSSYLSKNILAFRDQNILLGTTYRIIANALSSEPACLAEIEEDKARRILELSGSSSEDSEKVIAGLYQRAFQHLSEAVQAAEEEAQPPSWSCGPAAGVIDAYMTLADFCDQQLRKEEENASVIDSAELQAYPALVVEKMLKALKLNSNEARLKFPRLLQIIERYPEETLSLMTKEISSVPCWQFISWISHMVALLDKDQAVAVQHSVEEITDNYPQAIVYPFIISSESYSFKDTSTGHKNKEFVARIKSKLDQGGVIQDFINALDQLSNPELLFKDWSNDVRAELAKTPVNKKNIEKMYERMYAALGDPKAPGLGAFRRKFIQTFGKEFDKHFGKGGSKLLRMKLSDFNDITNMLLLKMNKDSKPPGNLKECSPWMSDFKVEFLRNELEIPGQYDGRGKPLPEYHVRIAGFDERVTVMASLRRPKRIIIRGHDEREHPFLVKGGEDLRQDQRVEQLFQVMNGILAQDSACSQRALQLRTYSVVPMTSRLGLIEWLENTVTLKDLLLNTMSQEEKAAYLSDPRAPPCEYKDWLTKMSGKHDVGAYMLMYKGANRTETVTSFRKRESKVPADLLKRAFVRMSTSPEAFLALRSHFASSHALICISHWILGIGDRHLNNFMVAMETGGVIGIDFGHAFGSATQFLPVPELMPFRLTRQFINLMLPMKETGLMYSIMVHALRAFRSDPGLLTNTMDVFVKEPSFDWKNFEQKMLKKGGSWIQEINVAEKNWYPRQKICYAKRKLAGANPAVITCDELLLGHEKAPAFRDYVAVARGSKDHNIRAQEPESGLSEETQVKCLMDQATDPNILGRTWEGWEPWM

Molecular target: T1, GPR37L1 tagged with turbo green fluorescence protein (GFP) (human) (UniProt O60883)
T1 sequence: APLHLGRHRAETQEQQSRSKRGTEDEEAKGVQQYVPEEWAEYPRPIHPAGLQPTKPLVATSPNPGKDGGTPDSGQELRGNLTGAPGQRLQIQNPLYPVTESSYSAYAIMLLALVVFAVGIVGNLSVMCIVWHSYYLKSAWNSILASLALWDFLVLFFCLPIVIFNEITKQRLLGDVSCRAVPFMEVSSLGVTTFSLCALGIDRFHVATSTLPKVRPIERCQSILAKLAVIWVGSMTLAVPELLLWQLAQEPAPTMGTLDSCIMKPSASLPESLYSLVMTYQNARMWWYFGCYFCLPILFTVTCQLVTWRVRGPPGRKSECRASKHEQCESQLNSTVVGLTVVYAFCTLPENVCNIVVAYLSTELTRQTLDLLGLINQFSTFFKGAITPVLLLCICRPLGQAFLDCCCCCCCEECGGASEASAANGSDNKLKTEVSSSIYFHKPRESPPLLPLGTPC
Test: affinity purification with mass spectrometry; lysate (50 mM HEPES pH 7.6, 150 mM KCl, 2 mM EDTA, 0.5 mM DTT, 0.5% NP40) of hRPTCs expressing GPR37L1-GFP, fractionated on a 10-30% glycerol gradient; fractions 10-14 pooled, captured with GFP antibody on Protein G Dynabeads, eluted with SDS sample buffer, in-gel trypsin digestion, LC-MS/MS

| Substance | binding |
| --- | --- |
| Importin subunit beta-1 (from UniProt Q14974 1-876) | binds |
| Importin-1 (human (endogenous in hRPTCs)) | binds |
| Exportin-5 (from UniProt Q9HAV4 1-1204) | binds |

Further lines, results first:

| binding | Substance |
| --- | --- |
| binds | Exportin-1 (from UniProt O14980 1-1071) |
| binds | Nuclear pore membrane glycoprotein 210 (from UniProt Q8TEM1 27-1887) |
| binds | DNA-dependent protein kinase catalytic subunit (from UniProt P78527 1-4128) (enzyme) |
